Measurements reported in patent publication US20140010815A1 (JOSAI UNIVERSITY, published 2014).
These are yes or no findings as the source states them, for the method shown. A result given as binding can be weak or reduced; the word gives no strength. No end group written: not given here.

Tests used:
Experiment in all cases: ELISA, histone coated on the plate, 5 ug/mL antibody, absorbance at 405 nm
histone H1 = target: histone H1
histone H2A = target: histone H2A
histone H2B = target: histone H2B
histone H3 = target: histone H3

Measured: binding

B1: monoclonal antibody (SSVmAb) of Example 1, produced by Mouse-Mouse hybridoma SSV-C 93-3 (antibody, IgG1, V domains shown)
VH: EIQLQQSGAELVKPGASVKISCKASGYSFTGYNMNWVKQSHGKSLEWIGNINPYYGSTSYNQKFKGKATLTVDKSSSTAYMQLNSLTSEDSAVYYCARSPYYSNYWRYFDYWGQGTTLTVSS
VL: QIVLSQSPAILSASPGEKVTMTCRASSSVSYMHWYQQKPGSSPKPWIYATSNLASGVPARFSGSGSGTSYSLTISRVEAEDAATYYCQQWSSNPWTFGGGTKLEIK
notes: Mouse monoclonal antibody purified from hybridoma culture supernatant; light chain amplified with a mouse kappa constant region primer
binds: histone H1 | histone H2A | histone H2B | histone H3
